Results on one compound are retold here after paper PMC4581690, “Targeting Lysine Deacetylases (KDACs) in Parasites” (PLoS Neglected Tropical Diseases, 2015).

Structures are written as SMILES.

Format in all cases: cell-based
The subject of one assay is L929 mouse fibroblast. The assay is described as follows: CYT vt: cytotoxicity viability assay. The conditions noted are these: L929, read-out: measured activity (IC50), CYT vt, L929.
The subject of a further assay is T. brucei strain S427. The assay is described as follows: HAT vt: Human African trypanosoma viability assay. The conditions noted are these: 72 hour, resazurin, read-out: measured activity (IC50), HAT vt, TbbS427. (Resazurin is reduced to fluorescent resorufin, in cell work by metabolically active cells.)
Assay [1] relates to L. donovani strain MHOM/SD/00/LS. The assay is described as follows: LEI axe: Leishmania axenic amastigote assay. The conditions noted are these: 72 hour, axenic amastigotes, resazurin, read-out: measured activity (IC50), LEI axe, Ld1S.

By IC50 is commonly meant the concentration that gives 50% inhibition. On to `O=C(CCCCCCC(=O)Nc1ccccc1)NO` [GRM1, SAHA, reference compound], for which the concentration for half-maximal inhibition (IC50) in the assay with L929 mouse fibroblast is 155 nM; in the assay with T. brucei strain S427 it was 1810 nM; in assay [1], greater than 5000 nM.
